These are yes or no findings as the source states them, for the method shown. Some entries that bind do so weakly or less than the wild type.

By UniProt entry, the sequences of proteins in these tests, tags left out. Where a name states a change or a piece, a line headed by the entry shows the natural chain unless it says otherwise.
UniProt P10415: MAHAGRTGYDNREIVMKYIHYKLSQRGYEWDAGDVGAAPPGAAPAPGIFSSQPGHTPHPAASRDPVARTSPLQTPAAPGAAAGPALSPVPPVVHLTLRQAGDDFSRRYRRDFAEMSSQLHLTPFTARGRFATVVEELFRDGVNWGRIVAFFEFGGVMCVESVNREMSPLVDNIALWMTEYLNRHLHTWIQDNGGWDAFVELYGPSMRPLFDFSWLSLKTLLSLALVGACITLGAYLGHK
UniProt O43521: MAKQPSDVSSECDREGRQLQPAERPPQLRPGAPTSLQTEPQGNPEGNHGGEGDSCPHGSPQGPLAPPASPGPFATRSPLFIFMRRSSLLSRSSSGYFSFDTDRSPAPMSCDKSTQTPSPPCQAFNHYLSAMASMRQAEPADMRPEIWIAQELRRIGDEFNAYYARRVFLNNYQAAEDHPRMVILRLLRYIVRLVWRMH

This experiment concerns the target Bc12:BIM heterodimer (as used in FIG. 8) (human) (UniProt P10415+O43521). The experiment is described as follows: ELISA, signal relative to the Bc12:BIM heterodimer.

B1: HSB2B clone 2H3G7 (antibody, V domains shown)
VH: QVQLQQPGAELVKPGTSVKLSCQASGYTFASYWMHWVKQRPGRGLEWIGRIDPNSGGTKYNEKFKSKVTLTVDKPSSAAYMQLSSLTSEDSAVYYCARWWDYDYFDYWGQGTTLTVSS
VL: DIVMTQSPSSLTVTAGEKVTMSCKSSQSLLNSGNQKRYLTWYQQKPGQPPKLLIYWASTRESGVPDRFTGSGSGTDFTLTISSVQAEDLAVYYCQNDYNYPLTFGSGTKLELK
notes: Mouse IgG, tested as hybridoma supernatant; also called HSB2B mAb 2H3
On to B1, for which the binding result is given as “binds”.

B2: HSB2B clone 28A9D11 (antibody, V domains shown)
VH: DVQLQESGPGLVKPSQSLSLTCSVTGYSITSGYYWNWIRQFPGNKLEWMGYISYDGSNNYNPSLKNRISITRDTSKNQFFLKLNSVTTEDTATYYCARDGTTVVATLAYWGQGTLVTVSA
VL: QIVLTQSPAIMSASPGEKVTISCSASSSVSYMYWYQQKPGSSPKPWIYRTSNLASGVPARFSGSGSGTSYSLTISSMEAEDAATYYCQQYHSYPPTFGAGTKLELK
notes: Mouse IgG, tested as hybridoma supernatant
As for B2, the binding entry is recorded as “binds”.
